# Hit rate of the full screen: of about 390,000 compounds, about 610 (0.16%) were called active. Inconclusive means that the source gave no clear call. Such entries were picked first, then a sample of the others. The call rests on the fitted dose curve; in most records, active means well fitted inhibition curve with a large enough effect; inconclusive means small, poorly fitted or top-dose-only effect, or effect the other way, or another doubt; inactive means no such curve, though single readings can be large or run the other way. A potency beside an inconclusive call is a rough fit, not a confirmed value.
# Experiment: Nrf2 qHTS screen for inhibitors: counterscreen for cytotoxicity
# Settings: A549 ARE-Fluc cells, CellTiter-Fluor viability, 18-24 h; activity change, negative = cytotoxicity: at 46 µM (top of the series)
# Summary of the method: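 Cytotoxicity counterscreen: CellTiter-Fluor fluorescence was measured in A549 ARE_Fluc cells after 18-24 h of compound exposure in a concentration series. The subsequent BugLite luminescent read reports ARE-luciferase activity.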
# On the % scale 0 is the no-effect control and ±100 the full control effect; potency means the concentration at half of the fitted maximal effect.
SMILES,"activity change, negative = cytotoxicity",Potency
COc1ccc2c(c1)C1=C(CC2)C(c2ccc(C)cc2)NC(=S)N1 (stereo unspecified),inactive: 4.75%,–
COc1ccccc1-c1c(C(F)(F)F)oc2c(CN3CCCCC3C)c(O)ccc2c1=O (stereo unspecified),–,"inconclusive: 6.51 µM [falling, single point]"
COC(=O)c1ccc(C(=O)OC)c(-n2c(=O)c3ccccc3c3ccccc3c2=O)c1,–,"inconclusive: 29.1 µM [falling, single point]"
COc1cc(CNCc2ccc(OC)cc2OC)cc(OC)c1,inactive: -6.72%,–
COc1ccccc1OCC(O)Cn1c(=N)n(Cc2ccccc2)c2ccccc21 (stereo unspecified),–,"inconclusive: 25.9 µM [falling, single point]"
CCCCC(CCC(=O)Nc1cc([N+](=O)[O-])ccc1O)C(=O)O (stereo unspecified),–,"inconclusive: 23.1 µM [falling, partial curve, poor fit]"
CCCN(CCC)CCCNC(=O)c1cc2c(-c3ccc(Cl)cc3)nn(C)c2s1,–,"inconclusive: 32.6 µM [falling, partial curve, poor fit]"
O=C(CSc1c2c(nc3ccccc13)CCC2)Nc1ccc(F)cc1F,–,"inconclusive: 29.1 µM [falling, single point]"
COc1ccc(CCNC(=O)c2cccnc2Cl)cc1OC,–,"inconclusive: 18.4 µM [activator, partial curve, poor fit]"
COc1ccc(Cn2c(=O)c3oc4ccccc4c3n(Cc3ccccc3)c2=O)cc1,–,"inconclusive: 9.2 µM [activator, partial curve, poor fit]"
Cc1ccccc1-n1nc(C)c2cc(C(=O)N3CCN(S(=O)(=O)c4ccc(F)cc4)CC3)sc21,inactive: -1.61%,–
COc1cc(NC(=O)c2cccs2)c(OC)cc1NC(=O)CCn1nnc2ccccc21,–,"inconclusive: 5.8 µM [activator, partial curve, poor fit]"
CCOC(=O)c1c(C)[nH]c(C(=O)OCC(=O)NCc2ccc(F)cc2)c1C,–,"inconclusive: 16.4 µM [falling, partial curve, poor fit]"
CC(C)[Si]1(C(C)C)OCC2OC(n3cnc4c(N)ncnc43)C(N)C2O[Si](C(C)C)(C(C)C)O1 (stereo unspecified),–,"inconclusive: 29.1 µM [falling, single point]"
Cc1cc(OC(=O)CNC(=O)OC(C)(C)C)c2c(C)cc(=O)oc2c1,–,"inconclusive: 32.6 µM [falling, partial curve, poor fit]"
CCn1c(O)c(C=NCc2ccccc2)sc1=S,–,"inconclusive: 29.1 µM [falling, single point]"
CC(NC(=O)c1cccc(Nc2nc3ccccc3n3nnnc23)c1)c1ccccc1 (stereo unspecified),–,"inconclusive: 14.6 µM [falling, partial curve]"
COc1ccccc1/C=C/CN1CCC(Oc2ccc(C(=O)N3CCCCC3)cc2)CC1,–,"inconclusive: 20.6 µM [falling, single point]"
CCCCN1C(=O)C(NC(=O)c2ccc(C(C)(C)C)cc2)(C(F)(F)F)C(C(=O)OC)=C1C (stereo unspecified),–,"inconclusive: 16.4 µM [activator, partial curve, poor fit]"
O=C(C[C@H]1C[C@H](C(=O)N2CCOCC2)[C@@]2(CCC3CCCC3)c3[nH]c4cc(-c5ccco5)ccc4c3CCN2C1=O)NCCN1CCOCC1,–,"inconclusive: 20.6 µM [falling, partial curve, poor fit]"
Cc1ccc(N2CCN(c3ncnc4onc(-c5ccc(F)cc5)c34)CC2)c(C)c1,inactive: 0.687%,–

# Shown with tabs: entries from further up
SMILES	activity change, negative = cytotoxicity	Potency
COc1ccc2c(c1)C1=C(CC2)C(c2ccc(C)cc2)NC(=S)N1 (stereo unspecified)	inactive: 4.75%	–
COc1ccccc1OCC(O)Cn1c(=N)n(Cc2ccccc2)c2ccccc21 (stereo unspecified)	–	inconclusive: 25.9 µM [falling, single point]
COc1ccc(CCNC(=O)c2cccnc2Cl)cc1OC	–	inconclusive: 18.4 µM [activator, partial curve, poor fit]
Cc1ccccc1-n1nc(C)c2cc(C(=O)N3CCN(S(=O)(=O)c4ccc(F)cc4)CC3)sc21	inactive: -1.61%	–
COc1ccccc1/C=C/CN1CCC(Oc2ccc(C(=O)N3CCCCC3)cc2)CC1	–	inconclusive: 20.6 µM [falling, single point]
CCCCN1C(=O)C(NC(=O)c2ccc(C(C)(C)C)cc2)(C(F)(F)F)C(C(=O)OC)=C1C (stereo unspecified)	–	inconclusive: 16.4 µM [activator, partial curve, poor fit]
O=C(C[C@H]1C[C@H](C(=O)N2CCOCC2)[C@@]2(CCC3CCCC3)c3[nH]c4cc(-c5ccco5)ccc4c3CCN2C1=O)NCCN1CCOCC1	–	inconclusive: 20.6 µM [falling, partial curve, poor fit]

# Later entries.

SMILES,"activity change, negative = cytotoxicity",Potency
CCn1c(=O)c2sccc2n2c(CCCC(=O)Nc3ccc(C)cc3)nnc12,inactive: 0.0399%,–
CC(C)(C)c1cc(C(=O)Nc2ccccc2)ccn1,–,"inconclusive: 29.1 µM [falling, single point]"
COc1cccc(CNC(=O)c2ccc3oc(=O)n(Cc4ccccc4)c3c2)c1,inactive: 0.0053%,–
COc1ccc(-c2nc(NC(=O)C3CC(=O)N(c4ccc5c(c4)OCCO5)C3)sc2C)cc1 (stereo unspecified),–,"inconclusive: 29.1 µM [falling, single point]"
O=C(O)CSc1cc(NS(=O)(=O)c2cccc([N+](=O)[O-])c2)c2ccccc2c1O,–,"inconclusive: 20.6 µM [falling, single point]"
Cc1cc(C)c(S(=O)(=O)Nc2ccc(O)cc2)c(C)c1,inactive: -16.3%,–
O=[N+]([O-])c1ccc(-c2cn(-c3ccccc3)c(=S)[nH]2)cc1,–,"inconclusive: 29.1 µM [falling, partial curve, poor fit]"
O=C1C2=C(Nc3ccccc3SC2c2ccc(C(F)(F)F)cc2)c2ccccc21 (stereo unspecified),–,"inconclusive: 25.9 µM [falling, partial curve, poor fit]"
O=C(O)c1ccc2c(=O)n3cc(C(=O)c4ccccc4O)cc(Cl)c3nc2c1,–,"inconclusive: 32.6 µM [falling, partial curve, poor fit]"
O=C1CC(=Nc2ccccc2)NN1c1ccccc1,–,"inconclusive: 23.1 µM [falling, single point]"
Cc1ccc(S(=O)(=O)NC(=O)Nc2ccc(N(C)C)cc2)cc1,–,"inconclusive: 20.6 µM [falling, single point]"
Cc1ccc(S(=O)(=O)c2cn(C)c3cc(N4CCOCC4)c(F)cc3c2=O)c(C)c1,inconclusive: -54.7% [activator],–
O=c1c2ccccc2nc(/C=C/c2ccc([N+](=O)[O-])o2)n1CCCO,–,active: 23.1 µM
COc1ccc(NC(=O)N2CCC(CN3CCCC3)CC2)c(OC)c1,inactive: -3.73%,–
O=C(Nc1nc(-c2ccc([N+](=O)[O-])cc2)cs1)c1c(F)cccc1F,inactive: -17.8%,–
CCCCCN1C(C(=O)c2ccccc2)=C(NC(=O)c2ccc(OC)c(OC)c2)c2ccccc2S1(=O)=O,–,"inconclusive: 0.411 µM [falling, partial curve, poor fit]"
C/C=C1\COC(C(=O)NCc2ccccc2)(C(F)(F)F)C=C1C=C1CCCCC1 (stereo unspecified),–,inactive
C(=N\Nc1nc(-c2cccnc2)nc2ccccc12)/c1ccccc1,inactive: -10.9%,–
Cc1cccc(N(C(=O)C(F)(F)F)C(C(=O)NC2CCCCC2)c2cccs2)c1 (stereo unspecified),inactive: -4.84%,–
Cc1cc(/C=N/Nc2ccc([N+](=O)[O-])cn2)c(C)n1-c1ccc(C(=O)O)cc1,–,"inconclusive: 29.1 µM [falling, single point]"
